# PubChem BioAssay AID1224829 – NIAID – 2016
# Assay: 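Secondary check of hits that alter LPS-induced p65 translocation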 (follow-up of hits)
# System: mouse RAW264.7 G9 macrophage reporter cells
# Knock-down reagent: single siRNA against mouse genes, 100 nM
# Timing: 2 days of siRNA knock-down, then 40 min of LPS before fixing
# Conditions: LPS (Salmonella minnesota R595) at 10 ng/ml
# Measured: 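High-content images after 40 min LPS exposure; GFP-p65 nucleus to surrounding ring signal ratio, normalised to plate median and non-targeting control wells, expressed as z-score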
# Reading the numbers: p65 translocation z-score: higher = more nuclear NF-kappaB p65 after LPS
# Call rule: 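An siRNA is called active when the mean z-score of its two replicates is above 2 or below -2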
# Calls: active = changed p65 translocation (either direction); inactive = no clear change
# Here is an unselected part of about 3,800 reagents. 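Calls cover raised and lowered translocation; gene median uses one vendor's three siRNAs; qiagen siRNAs acted more weakly than ambion siRNAs.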 Entries without a mark were called inactive. The numbers tell different reagents against one gene apart. Not all columns of the deposit are shown. Reagent sequences are not shown.
target,reagent no.,siRNA vendor or control pool,"p65 translocation z-score, replicate mean","p65 translocation z-score, replicate 1"
A430093F15Rik (RIKEN cDNA A430093F15 gene),1,ambion single siRNA,-0.238,-0.972
A430093F15Rik (RIKEN cDNA A430093F15 gene),2,ambion single siRNA,-7.32 (active),-9.25
A430093F15Rik (RIKEN cDNA A430093F15 gene),3,ambion single siRNA,-1.76,2.63
A430093F15Rik (RIKEN cDNA A430093F15 gene),4,qiagen single siRNA,-0.253,0.00792
A430093F15Rik (RIKEN cDNA A430093F15 gene),5,qiagen single siRNA,-0.734,-1.12
A430093F15Rik (RIKEN cDNA A430093F15 gene),6,qiagen single siRNA,-0.724,-1.64
Rarres2 (retinoic acid receptor responder (tazarotene induced) 2),1,ambion single siRNA,-2.6 (active),-3.59
Rarres2 (retinoic acid receptor responder (tazarotene induced) 2),2,ambion single siRNA,-5.76 (active),-5.75
Rarres2 (retinoic acid receptor responder (tazarotene induced) 2),3,ambion single siRNA,-1.45,-1.45
Rarres2 (retinoic acid receptor responder (tazarotene induced) 2),4,qiagen single siRNA,-1.07,-1.28
Rarres2 (retinoic acid receptor responder (tazarotene induced) 2),5,qiagen single siRNA,0.366,0.366
Rarres2 (retinoic acid receptor responder (tazarotene induced) 2),6,qiagen single siRNA,-2.51 (active),-3.36
Usp43 (ubiquitin specific peptidase 43),1,ambion single siRNA,-0.858,-0.0689
Usp43 (ubiquitin specific peptidase 43),2,ambion single siRNA,0.446,1.38
Usp43 (ubiquitin specific peptidase 43),3,ambion single siRNA,1.59,2.3
Nedd4,1,ambion single siRNA,0.65,0.914
Nedd4,2,ambion single siRNA,-0.718,-0.718
Nedd4,3,ambion single siRNA,-1.57,-3.12
Nedd4,4,qiagen single siRNA,1.44,0.932
Nedd4,5,qiagen single siRNA,-0.598,-0.743
Nedd4,6,qiagen single siRNA,0.256,-0.485
Ppm1l (protein phosphatase 1 (formerly 2C)-like),1,ambion single siRNA,-2.77 (active),-3.01
Ppm1l (protein phosphatase 1 (formerly 2C)-like),2,ambion single siRNA,-1.07,-0.604
Ppm1l (protein phosphatase 1 (formerly 2C)-like),3,ambion single siRNA,-4.02 (active),-2.67
Ppm1l (protein phosphatase 1 (formerly 2C)-like),4,qiagen single siRNA,0.00312,-1.32
Ppm1l (protein phosphatase 1 (formerly 2C)-like),5,qiagen single siRNA,1.43,0.326
Ppm1l (protein phosphatase 1 (formerly 2C)-like),6,qiagen single siRNA,0.00712,0.891
"Fam53a (family with sequence similarity 53, member A)",1,ambion single siRNA,0.204,-0.494
"Fam53a (family with sequence similarity 53, member A)",2,ambion single siRNA,-4.13 (active),-4.13
"Fam53a (family with sequence similarity 53, member A)",3,ambion single siRNA,-2.82 (active),-2.32
"Fam53a (family with sequence similarity 53, member A)",4,qiagen single siRNA,2.31 (active),2.67
"Fam53a (family with sequence similarity 53, member A)",5,qiagen single siRNA,-2.69 (active),-3.06
"Fam53a (family with sequence similarity 53, member A)",6,qiagen single siRNA,-1.38,-3.02
Hopx (HOP homeobox),1,ambion single siRNA,-0.857,-1.77
Hopx (HOP homeobox),2,ambion single siRNA,2.41 (active),3.5
Hopx (HOP homeobox),3,ambion single siRNA,0.162,-0.838
Hopx (HOP homeobox),4,qiagen single siRNA,0.957,1.91
Hopx (HOP homeobox),5,qiagen single siRNA,1.47,0.327
Hopx (HOP homeobox),6,qiagen single siRNA,-2.12 (active),-2.12
Eif6 (eukaryotic translation initiation factor 6),1,ambion single siRNA,2.83 (active),3.09
Eif6 (eukaryotic translation initiation factor 6),2,ambion single siRNA,4.2 (active),5.07
Eif6 (eukaryotic translation initiation factor 6),3,ambion single siRNA,-1.96,-1.91

7 of these entries, set out differently:
target	reagent no.	siRNA vendor or control pool	p65 translocation z-score, replicate mean	p65 translocation z-score, replicate 1
A430093F15Rik (RIKEN cDNA A430093F15 gene)	4	qiagen single siRNA	-0.253	0.00792
A430093F15Rik (RIKEN cDNA A430093F15 gene)	5	qiagen single siRNA	-0.734	-1.12
A430093F15Rik (RIKEN cDNA A430093F15 gene)	6	qiagen single siRNA	-0.724	-1.64
Rarres2 (retinoic acid receptor responder (tazarotene induced) 2)	1	ambion single siRNA	-2.6 (active)	-3.59
Rarres2 (retinoic acid receptor responder (tazarotene induced) 2)	2	ambion single siRNA	-5.76 (active)	-5.75
Rarres2 (retinoic acid receptor responder (tazarotene induced) 2)	3	ambion single siRNA	-1.45	-1.45
Rarres2 (retinoic acid receptor responder (tazarotene induced) 2)	4	qiagen single siRNA	-1.07	-1.28

More results follow.
target,reagent no.,siRNA vendor or control pool,"p65 translocation z-score, replicate mean","p65 translocation z-score, replicate 1"
Slc16a10,1,ambion single siRNA,-0.348,0.232
Slc16a10,2,ambion single siRNA,2.11 (active),1.94
Slc16a10,3,ambion single siRNA,-3.75 (active),-0.52
Slc16a10,4,qiagen single siRNA,-0.951,-0.93
Slc16a10,5,qiagen single siRNA,0.947,-0.245
Slc16a10,6,qiagen single siRNA,1.33,0.327
Traf2 (TNF receptor-associated factor 2),1,ambion single siRNA,1.1,2.02
Traf2 (TNF receptor-associated factor 2),2,ambion single siRNA,-1.37,-1.27
Traf2 (TNF receptor-associated factor 2),3,ambion single siRNA,-6.47 (active),-6.08
Traf2 (TNF receptor-associated factor 2),4,qiagen single siRNA,-0.678,-0.797
Traf2 (TNF receptor-associated factor 2),5,qiagen single siRNA,2.4 (active),1.01
Traf2 (TNF receptor-associated factor 2),6,qiagen single siRNA,-0.431,0.0863
Pawr (pro-apoptotic WT1 regulator),1,qiagen single siRNA,2.08 (active),1.35
Pawr (pro-apoptotic WT1 regulator),2,qiagen single siRNA,1.14,0.301
Pawr (pro-apoptotic WT1 regulator),3,qiagen single siRNA,-0.893,-0.448
Sfpq,1,ambion single siRNA,0.316,0.153
Sfpq,2,ambion single siRNA,-1.79,-1.95
Sfpq,3,ambion single siRNA,-0.682,-0.898
Sfpq,4,qiagen single siRNA,0.565,0.712
Sfpq,5,qiagen single siRNA,-2.04 (active),-1.59
Sfpq,6,qiagen single siRNA,-0.337,-0.807
Folr1 (folate receptor alpha),1,ambion single siRNA,-1.48,-1.35
Folr1 (folate receptor alpha),2,ambion single siRNA,3.43 (active),3.99
Folr1 (folate receptor alpha),3,ambion single siRNA,1.68,2.55
Folr1 (folate receptor alpha),4,qiagen single siRNA,-0.446,-1.46
Folr1 (folate receptor alpha),5,qiagen single siRNA,-1.22,-0.481
Folr1 (folate receptor alpha),6,qiagen single siRNA,-1.48,-1.48
